No constants are given. Whether binding was seen depends on the method and setting. In cells and extracts the contact can be indirect. Here binding means that the protein was enriched with, or labelled near, the bait; the list need not be complete. For some of these results: A no says only that the protein was not detected with the bait.
Legend:
TBLR1-mCherry wild type = biological target: T1, TBLR1-mCherry wild type (UniProt Q9BZK7); assay: affinity purification with mass spectrometry; IP (RFP trap) of wild-type, G70D or D370N TBLR1-mCherry transfected into TBLR1-null Flp-In T-REx 293 cells; extracts in NE10, benzonase, 150 mM NaCl; n = 3 transfections
T1 sequence: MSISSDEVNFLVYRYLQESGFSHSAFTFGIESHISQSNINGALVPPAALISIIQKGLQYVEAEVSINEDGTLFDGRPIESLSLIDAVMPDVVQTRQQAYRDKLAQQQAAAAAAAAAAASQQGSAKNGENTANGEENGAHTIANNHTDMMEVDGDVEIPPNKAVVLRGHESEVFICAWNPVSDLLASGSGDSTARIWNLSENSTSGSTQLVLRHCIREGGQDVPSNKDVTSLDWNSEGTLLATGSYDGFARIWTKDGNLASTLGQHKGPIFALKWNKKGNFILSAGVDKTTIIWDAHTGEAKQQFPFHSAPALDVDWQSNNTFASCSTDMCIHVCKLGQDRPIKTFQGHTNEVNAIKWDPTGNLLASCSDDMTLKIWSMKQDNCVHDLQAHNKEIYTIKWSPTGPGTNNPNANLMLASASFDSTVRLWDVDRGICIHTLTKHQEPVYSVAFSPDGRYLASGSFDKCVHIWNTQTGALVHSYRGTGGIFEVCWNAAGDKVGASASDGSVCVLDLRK

Protein sequences, listed by entry. Tags and fused reporters are not part of them.
UniProt Q60974: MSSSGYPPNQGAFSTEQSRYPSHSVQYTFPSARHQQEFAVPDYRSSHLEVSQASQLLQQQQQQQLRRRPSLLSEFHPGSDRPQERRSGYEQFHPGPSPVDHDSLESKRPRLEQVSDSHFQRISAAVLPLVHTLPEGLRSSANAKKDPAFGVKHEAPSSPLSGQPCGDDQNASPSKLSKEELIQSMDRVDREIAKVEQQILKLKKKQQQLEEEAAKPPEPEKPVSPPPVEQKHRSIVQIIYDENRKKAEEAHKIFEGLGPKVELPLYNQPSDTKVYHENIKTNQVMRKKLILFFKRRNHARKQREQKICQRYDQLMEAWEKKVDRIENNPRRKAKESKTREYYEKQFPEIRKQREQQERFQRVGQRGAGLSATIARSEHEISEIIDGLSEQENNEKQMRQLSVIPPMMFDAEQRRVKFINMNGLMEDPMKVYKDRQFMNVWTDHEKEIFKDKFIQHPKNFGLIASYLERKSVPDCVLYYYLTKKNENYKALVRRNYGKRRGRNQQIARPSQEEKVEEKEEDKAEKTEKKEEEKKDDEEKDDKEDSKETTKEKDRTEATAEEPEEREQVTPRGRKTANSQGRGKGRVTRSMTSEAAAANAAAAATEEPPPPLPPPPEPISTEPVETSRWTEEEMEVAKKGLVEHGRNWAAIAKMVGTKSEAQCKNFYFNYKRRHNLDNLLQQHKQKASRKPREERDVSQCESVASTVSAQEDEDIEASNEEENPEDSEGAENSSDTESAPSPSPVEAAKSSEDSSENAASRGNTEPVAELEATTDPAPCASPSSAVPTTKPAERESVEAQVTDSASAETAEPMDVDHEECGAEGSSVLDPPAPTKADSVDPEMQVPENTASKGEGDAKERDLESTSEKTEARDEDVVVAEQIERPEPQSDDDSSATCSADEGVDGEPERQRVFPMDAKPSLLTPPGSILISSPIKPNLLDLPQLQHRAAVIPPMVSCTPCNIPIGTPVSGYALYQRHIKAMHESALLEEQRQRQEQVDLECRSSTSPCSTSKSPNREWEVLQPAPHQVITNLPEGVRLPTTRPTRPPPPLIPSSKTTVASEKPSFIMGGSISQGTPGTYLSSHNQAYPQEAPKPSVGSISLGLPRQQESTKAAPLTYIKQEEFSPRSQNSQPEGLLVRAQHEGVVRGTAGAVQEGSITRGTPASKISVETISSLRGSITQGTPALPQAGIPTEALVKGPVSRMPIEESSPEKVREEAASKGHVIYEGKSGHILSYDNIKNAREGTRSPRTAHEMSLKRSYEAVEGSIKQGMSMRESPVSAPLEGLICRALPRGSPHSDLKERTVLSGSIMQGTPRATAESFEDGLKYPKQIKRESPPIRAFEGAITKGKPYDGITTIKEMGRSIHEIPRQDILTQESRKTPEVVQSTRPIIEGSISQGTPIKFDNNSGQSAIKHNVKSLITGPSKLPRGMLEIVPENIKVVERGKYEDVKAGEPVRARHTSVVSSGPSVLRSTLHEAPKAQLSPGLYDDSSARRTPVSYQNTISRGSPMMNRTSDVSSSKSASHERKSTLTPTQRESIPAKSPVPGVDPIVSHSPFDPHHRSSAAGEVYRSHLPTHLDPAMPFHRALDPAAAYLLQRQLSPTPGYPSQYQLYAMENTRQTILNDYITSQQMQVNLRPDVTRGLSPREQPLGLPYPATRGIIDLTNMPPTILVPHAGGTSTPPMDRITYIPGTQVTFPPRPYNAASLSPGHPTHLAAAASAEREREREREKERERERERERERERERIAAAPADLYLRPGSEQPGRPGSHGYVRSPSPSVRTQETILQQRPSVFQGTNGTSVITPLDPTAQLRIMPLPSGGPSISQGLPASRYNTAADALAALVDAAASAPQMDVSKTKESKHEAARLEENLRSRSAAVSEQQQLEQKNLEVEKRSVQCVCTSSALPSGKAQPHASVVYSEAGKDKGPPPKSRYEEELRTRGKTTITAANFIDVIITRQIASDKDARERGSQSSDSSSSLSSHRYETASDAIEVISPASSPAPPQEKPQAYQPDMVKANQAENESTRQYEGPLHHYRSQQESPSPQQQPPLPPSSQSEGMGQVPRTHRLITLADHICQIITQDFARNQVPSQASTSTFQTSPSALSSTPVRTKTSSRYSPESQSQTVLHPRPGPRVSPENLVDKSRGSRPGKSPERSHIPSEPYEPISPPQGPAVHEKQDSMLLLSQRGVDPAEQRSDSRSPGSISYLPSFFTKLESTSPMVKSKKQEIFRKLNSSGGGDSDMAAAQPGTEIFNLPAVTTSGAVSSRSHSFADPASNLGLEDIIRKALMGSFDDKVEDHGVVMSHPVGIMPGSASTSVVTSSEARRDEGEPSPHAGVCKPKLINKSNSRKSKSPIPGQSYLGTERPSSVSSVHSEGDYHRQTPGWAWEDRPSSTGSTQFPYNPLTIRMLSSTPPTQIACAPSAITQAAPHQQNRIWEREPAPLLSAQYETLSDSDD
UniProt Q6UB99: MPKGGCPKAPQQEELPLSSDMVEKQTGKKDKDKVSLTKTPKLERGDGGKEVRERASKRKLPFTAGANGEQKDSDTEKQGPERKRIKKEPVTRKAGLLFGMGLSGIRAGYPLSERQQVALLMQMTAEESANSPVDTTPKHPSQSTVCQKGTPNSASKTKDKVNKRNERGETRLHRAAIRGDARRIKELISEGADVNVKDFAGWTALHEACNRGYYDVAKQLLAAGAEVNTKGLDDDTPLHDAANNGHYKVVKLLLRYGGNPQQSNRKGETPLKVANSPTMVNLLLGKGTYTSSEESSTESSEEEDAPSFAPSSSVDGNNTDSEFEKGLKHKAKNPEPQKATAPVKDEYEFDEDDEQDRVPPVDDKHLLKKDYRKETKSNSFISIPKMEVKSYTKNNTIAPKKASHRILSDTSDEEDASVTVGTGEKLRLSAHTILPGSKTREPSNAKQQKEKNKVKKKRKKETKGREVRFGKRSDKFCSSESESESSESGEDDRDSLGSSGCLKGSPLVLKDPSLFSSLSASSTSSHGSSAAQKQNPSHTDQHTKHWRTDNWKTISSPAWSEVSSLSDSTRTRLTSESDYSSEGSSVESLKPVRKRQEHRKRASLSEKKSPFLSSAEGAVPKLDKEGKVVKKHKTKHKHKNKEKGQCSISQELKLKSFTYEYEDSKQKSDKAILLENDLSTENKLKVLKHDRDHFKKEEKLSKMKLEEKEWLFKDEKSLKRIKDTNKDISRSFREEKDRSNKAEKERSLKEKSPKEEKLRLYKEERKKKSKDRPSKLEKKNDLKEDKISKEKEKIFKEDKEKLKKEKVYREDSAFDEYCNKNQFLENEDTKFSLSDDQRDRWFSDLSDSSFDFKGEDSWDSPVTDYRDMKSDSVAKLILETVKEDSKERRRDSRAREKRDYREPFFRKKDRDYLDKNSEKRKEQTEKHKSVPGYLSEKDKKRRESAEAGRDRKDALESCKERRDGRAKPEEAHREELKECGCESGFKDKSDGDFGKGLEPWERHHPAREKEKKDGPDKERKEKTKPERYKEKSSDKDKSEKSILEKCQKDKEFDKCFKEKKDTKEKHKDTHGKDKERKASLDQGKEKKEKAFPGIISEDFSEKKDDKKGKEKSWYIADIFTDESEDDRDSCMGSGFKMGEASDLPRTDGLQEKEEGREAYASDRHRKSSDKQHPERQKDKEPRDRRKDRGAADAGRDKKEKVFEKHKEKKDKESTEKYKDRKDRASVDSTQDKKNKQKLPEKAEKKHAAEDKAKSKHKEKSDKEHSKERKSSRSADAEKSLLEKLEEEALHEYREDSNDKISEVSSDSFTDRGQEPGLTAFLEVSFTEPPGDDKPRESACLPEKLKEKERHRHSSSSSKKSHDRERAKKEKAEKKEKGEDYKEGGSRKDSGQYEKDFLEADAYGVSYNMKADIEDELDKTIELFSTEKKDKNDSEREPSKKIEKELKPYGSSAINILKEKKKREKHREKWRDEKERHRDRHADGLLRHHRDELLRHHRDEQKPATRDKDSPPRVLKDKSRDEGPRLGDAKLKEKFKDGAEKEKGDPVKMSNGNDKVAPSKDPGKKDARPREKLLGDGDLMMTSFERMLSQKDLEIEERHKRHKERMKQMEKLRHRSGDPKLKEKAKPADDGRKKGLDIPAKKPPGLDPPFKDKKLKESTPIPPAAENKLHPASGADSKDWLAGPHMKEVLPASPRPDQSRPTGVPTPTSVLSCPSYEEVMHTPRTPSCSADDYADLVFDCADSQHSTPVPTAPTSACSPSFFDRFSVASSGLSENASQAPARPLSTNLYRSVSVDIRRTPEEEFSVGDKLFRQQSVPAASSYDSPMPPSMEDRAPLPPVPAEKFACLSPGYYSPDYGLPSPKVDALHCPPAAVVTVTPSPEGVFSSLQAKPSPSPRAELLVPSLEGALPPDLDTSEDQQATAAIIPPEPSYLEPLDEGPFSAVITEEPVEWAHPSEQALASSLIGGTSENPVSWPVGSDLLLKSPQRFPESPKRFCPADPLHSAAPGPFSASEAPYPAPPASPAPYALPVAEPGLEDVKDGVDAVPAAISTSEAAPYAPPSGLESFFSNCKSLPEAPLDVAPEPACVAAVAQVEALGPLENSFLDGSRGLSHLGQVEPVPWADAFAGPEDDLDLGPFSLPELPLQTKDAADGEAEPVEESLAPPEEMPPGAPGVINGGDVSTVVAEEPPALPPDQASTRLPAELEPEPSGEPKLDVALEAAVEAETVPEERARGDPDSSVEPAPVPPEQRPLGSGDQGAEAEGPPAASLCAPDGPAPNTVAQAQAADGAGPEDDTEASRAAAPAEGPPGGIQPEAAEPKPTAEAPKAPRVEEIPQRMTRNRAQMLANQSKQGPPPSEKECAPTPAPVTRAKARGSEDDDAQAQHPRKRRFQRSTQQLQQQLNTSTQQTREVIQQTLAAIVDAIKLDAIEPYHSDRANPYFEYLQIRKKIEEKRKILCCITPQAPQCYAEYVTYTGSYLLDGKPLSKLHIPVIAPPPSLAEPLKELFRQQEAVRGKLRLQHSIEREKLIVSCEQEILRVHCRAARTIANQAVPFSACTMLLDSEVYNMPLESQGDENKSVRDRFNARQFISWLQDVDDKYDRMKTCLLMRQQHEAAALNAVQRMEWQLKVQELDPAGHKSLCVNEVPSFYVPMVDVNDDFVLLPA

TBLR1-mCherry D370N = biological target: T2, TBLR1-mCherry D370N (UniProt Q9BZK7); assay: as above
T2 sequence: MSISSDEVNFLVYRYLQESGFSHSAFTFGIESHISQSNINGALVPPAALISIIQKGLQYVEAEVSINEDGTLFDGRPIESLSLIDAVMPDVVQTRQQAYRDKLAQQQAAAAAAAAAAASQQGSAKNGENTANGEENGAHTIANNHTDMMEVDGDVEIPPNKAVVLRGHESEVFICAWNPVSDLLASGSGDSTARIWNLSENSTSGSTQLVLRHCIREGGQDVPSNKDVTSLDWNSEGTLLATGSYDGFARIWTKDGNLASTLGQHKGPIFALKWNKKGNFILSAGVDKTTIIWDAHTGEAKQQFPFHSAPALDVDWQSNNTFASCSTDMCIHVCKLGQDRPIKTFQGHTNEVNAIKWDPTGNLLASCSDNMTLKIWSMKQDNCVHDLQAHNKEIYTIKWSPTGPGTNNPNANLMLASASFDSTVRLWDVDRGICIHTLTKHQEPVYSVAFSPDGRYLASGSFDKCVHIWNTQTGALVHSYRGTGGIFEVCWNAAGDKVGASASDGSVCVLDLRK

[1] = biological target: endogenous mouse NCOR1 (brain) (mouse (endogenous in brain)) (UniProt Q60974); assay: affinity purification with mass spectrometry; IP with anti-NCOR1 cross-linked to protein G Dynabeads from brain nuclear extracts of Setd5^+/+ or Setd5^W834C/W834C male mice; n = 3 per genotype

## endogenous ANKRD11 of Flp-In T-REx 293 cells (from UniProt Q6UB99 1-2663)
TBLR1-mCherry wild type
  binding: binds

B1: endogenous SETD5 of Flp-In T-REx 293 and HEK293T cells (protein, UniProt Q9C0A6 1-1442)
chain: MSIAIPLGVTTSDTSYSDMAAGSDPESVEASPAVNEKSVYSTHNYGTTQRHGCRGLPYATIIPRSDLNGLPSPVEERCGDSPNSEGETVPTWCPCGLSQDGFLLNCDKCRGMSRGKVIRLHRRKQDNISGGDSSATESWDEELSPSTVLYTATQHTPTSITLTVRRTKPKKRKKSPEKGRAAPKTKKIKNSPSEAQNLDENTTEGWENRIRLWTDQYEEAFTNQYSADVQNALEQHLHSSKEFVGKPTILDTINKTELACNNTVIGSQMQLQLGRVTRVQKHRKILRAARDLALDTLIIEYRGKVMLRQQFEVNGHFFKKPYPFVLFYSKFNGVEMCVDARTFGNDARFIRRSCTPNAEVRHMIADGMIHLCIYAVSAITKDAEVTIAFDYEYSNCNYKVDCACHKGNRNCPIQKRNPNATELPLLPPPPSLPTIGAETRRRKARRKELEMEQQNEASEENNDQQSQEVPEKVTVSSDHEEVDNPEEKPEEEKEEVIDDQENLAHSRRTREDRKVEAIMHAFENLEKRKKRRDQPLEQSNSDVEITTTTSETPVGEETKTEAPESEVSNSVSNVTIPSTPQSVGVNTRRSSQAGDIAAEKLVPKPPPAKPSRPRPKSRISRYRTSSAQRLKRQKQANAQQAELSQAALEEGGSNSLVTPTEAGSLDSSGENRPLTGSDPTVVSITGSHVNRAASKYPKTKKYLVTEWLNDKAEKQECPVECPLRITTDPTVLATTLNMLPGLIHSPLICTTPKHYIRFGSPFIPERRRRPLLPDGTFSSCKKRWIKQALEEGMTQTSSVPQETRTQHLYQSNENSSSSSICKDNADLLSPLKKWKSRYLMEQNVTKLLRPLSPVTPPPPNSGSKSPQLATPGSSHPGEEECRNGYSLMFSPVTSLTTASRCNTPLQFELCHRKDLDLAKVGYLDSNTNSCADRPSLLNSGHSDLAPHPSLGPTSETGFPSRSGDGHQTLVRNSDQAFRTEFNLMYAYSPLNAMPRADGLYRGSPLVGDRKPLHLDGGYCSPAEGFSSRYEHGLMKDLSRGSLSPGGERACEGVPSAPQNPPQRKKVSLLEYRKRKQEAKENSAGGGGDSAQSKSKSAGAGQGSSNSVSDTGAHGVQGSSARTPSSPHKKFSPSHSSMSHLEAVSPSDSRGTSSSHCRPQENISSRWMVPTSVERLREGGSIPKVLRSSVRVAQKGEPSPTWESNITEKDSDPADGEGPETLSSALSKGATVYSPSRYSYQLLQCDSPRTESQSLLQQSSSPFRGHPTQSPGYSYRTTALRPGNPPSHGSSESSLSSTSYSSPAHPVSTDSLAPFTGTPGYFSSQPHSGNSTGSNLPRRSCPSSAASPTLQGPSDSPTSDSVSQSSTGTLSSTSFPQNSRSSLPSDLRTISLPSAGQSAVYQASRVSAVSNSQHYPHRGSGGVHQYRLQPLQGSGVKTQTGLS
TBLR1-mCherry D370N
  binding: binds
TBLR1-mCherry wild type
  binding: binds

B2: endogenous mouse SETD5 W834C (knock-in) (protein, UniProt Q5XJV7 1-1441)
chain: MSIAIPLGVTTPDTSYSDMAAGSDPESVEASPAVNEKSVYSTHNYGTTQRHGCRGLPYATIIPRSDLNGLPSPVEERCGDSPNSEGETVPTWCPCGLSQDGFLLNCDKCRGMSRGKVIRLHRRKQDNISGGDSSATESWDEELSPSTVLYTATQHTPTSITLTVRRTKPKKRKKSPEKGRAAPKTKKIKNSPSEAQNLDENTTEGWENRIRLWTDQYEEAFTNQYSADVQNALEQHLHSNKEFVGKPAILDTINKTELACNNTVIGSQMQLQLGRVTRVQKHRKILRAARDLALDTLIIEYRGKVMLRQQFEVNGHFFKKPYPFVLFYSKFNGVEMCVDARTFGNDARFIRRSCTPNAEVRHMIADGMIHLCIYAVSAITKDAEVTIAFDYEYSNCNYKVDCACHKGNRNCPIQKRNPNAAELPLPPPPSFPTIGAETRRRKARRKELELEQQNEVPEENPDPQPQEVPEKVTVSNEHEEVDNPEEKPEEEEKEEATDDQENSAHSRRTREDRKVEAIMHAFESLEKRKKRRDQPVEQSSSDIEITTSSSEIVVGEETKTAAPESEVSSPVSNVAIPSTPQSTGVNTRRSSHAGDVAAEKPIPKPPPAKPSRPRPKSRISRYRTSSAQRLKRQKQAIAQQAELSQAALEEGGSNNSVTPPEAGNTDSSGENRQLTGSDPTVISVTGSHVNRAASKYPKTKKYLVTEWLNDKAEKQECPVECPLRITTDPTVLATTLNMLPGLIHSPLICTTPKHYIRFGSPFMPERRRRPLLPDGTFSSCKKRWIKQALEEGMTQTSSVPQETRTQHLYQSNETSNSSSICKDNADLLSPLKKCKSRYLMEQNITKLLQPLSPVTPPPPSSGSKSPQLTTPGQTHPGEEECRNGYSLMFSPITSLTTASRSNTPLQFELCHRKDLDLTKVGFPDSSTHSCADRPSLLNCNHPDLASHPSVVPTSEAGFPSRSGDGPQTLLRNSDQAFRTEFNLMYAYSPLNAMPRADGLYRGSPLVGDRKPLHLDGGYCSPAEGFSSRYEHGFMKDLSRGSMSPGGERTCEGVPSAPQNPPQRKKVSLLEYRKRKQEAKENSGGGNDSSQSKSKSSGAGQGSSNSVSDTGAHGVQGSSAGTPSSPHKKFSPSHSSASHLEAVSPSDSRGTSSSHCRPQENISSRWMVPTSVERLREGGSIPKVLRSSVRVAQKGEPSPTWESNITEKESDPADGEGPEPLSSALSKGATVYSPSRYSYQLLQCDSPRTESQSLLQQSSSPFRGHPTQSPGYSYRTTALRPGNPPSHGSSESSLSSTSYPSPAHPVSTDSLAPFTGTPGYYSSQPHSGNSTGSNLPRRSCSSSAASPTPQGPSDSPTSDSVSQSSTGTLSSTSFPQNSRSSLPSDLRTISLPNAGQSAAYQASRVSAVSNSQHYPHRGSGGVHQYRLQPLQGSGVKTQTGLS
[1]
  binding: no binding
